Data on nine sequences can be found in US7138236.

Chains of the proteins cited; added tags and fusions are not shown. A line that says so, or that is headed by a name, gives the form on record, which may keep a tag or linker. Residues count along the entry.
UniProt P78527, other isoform, or with tags, fused parts or gaps: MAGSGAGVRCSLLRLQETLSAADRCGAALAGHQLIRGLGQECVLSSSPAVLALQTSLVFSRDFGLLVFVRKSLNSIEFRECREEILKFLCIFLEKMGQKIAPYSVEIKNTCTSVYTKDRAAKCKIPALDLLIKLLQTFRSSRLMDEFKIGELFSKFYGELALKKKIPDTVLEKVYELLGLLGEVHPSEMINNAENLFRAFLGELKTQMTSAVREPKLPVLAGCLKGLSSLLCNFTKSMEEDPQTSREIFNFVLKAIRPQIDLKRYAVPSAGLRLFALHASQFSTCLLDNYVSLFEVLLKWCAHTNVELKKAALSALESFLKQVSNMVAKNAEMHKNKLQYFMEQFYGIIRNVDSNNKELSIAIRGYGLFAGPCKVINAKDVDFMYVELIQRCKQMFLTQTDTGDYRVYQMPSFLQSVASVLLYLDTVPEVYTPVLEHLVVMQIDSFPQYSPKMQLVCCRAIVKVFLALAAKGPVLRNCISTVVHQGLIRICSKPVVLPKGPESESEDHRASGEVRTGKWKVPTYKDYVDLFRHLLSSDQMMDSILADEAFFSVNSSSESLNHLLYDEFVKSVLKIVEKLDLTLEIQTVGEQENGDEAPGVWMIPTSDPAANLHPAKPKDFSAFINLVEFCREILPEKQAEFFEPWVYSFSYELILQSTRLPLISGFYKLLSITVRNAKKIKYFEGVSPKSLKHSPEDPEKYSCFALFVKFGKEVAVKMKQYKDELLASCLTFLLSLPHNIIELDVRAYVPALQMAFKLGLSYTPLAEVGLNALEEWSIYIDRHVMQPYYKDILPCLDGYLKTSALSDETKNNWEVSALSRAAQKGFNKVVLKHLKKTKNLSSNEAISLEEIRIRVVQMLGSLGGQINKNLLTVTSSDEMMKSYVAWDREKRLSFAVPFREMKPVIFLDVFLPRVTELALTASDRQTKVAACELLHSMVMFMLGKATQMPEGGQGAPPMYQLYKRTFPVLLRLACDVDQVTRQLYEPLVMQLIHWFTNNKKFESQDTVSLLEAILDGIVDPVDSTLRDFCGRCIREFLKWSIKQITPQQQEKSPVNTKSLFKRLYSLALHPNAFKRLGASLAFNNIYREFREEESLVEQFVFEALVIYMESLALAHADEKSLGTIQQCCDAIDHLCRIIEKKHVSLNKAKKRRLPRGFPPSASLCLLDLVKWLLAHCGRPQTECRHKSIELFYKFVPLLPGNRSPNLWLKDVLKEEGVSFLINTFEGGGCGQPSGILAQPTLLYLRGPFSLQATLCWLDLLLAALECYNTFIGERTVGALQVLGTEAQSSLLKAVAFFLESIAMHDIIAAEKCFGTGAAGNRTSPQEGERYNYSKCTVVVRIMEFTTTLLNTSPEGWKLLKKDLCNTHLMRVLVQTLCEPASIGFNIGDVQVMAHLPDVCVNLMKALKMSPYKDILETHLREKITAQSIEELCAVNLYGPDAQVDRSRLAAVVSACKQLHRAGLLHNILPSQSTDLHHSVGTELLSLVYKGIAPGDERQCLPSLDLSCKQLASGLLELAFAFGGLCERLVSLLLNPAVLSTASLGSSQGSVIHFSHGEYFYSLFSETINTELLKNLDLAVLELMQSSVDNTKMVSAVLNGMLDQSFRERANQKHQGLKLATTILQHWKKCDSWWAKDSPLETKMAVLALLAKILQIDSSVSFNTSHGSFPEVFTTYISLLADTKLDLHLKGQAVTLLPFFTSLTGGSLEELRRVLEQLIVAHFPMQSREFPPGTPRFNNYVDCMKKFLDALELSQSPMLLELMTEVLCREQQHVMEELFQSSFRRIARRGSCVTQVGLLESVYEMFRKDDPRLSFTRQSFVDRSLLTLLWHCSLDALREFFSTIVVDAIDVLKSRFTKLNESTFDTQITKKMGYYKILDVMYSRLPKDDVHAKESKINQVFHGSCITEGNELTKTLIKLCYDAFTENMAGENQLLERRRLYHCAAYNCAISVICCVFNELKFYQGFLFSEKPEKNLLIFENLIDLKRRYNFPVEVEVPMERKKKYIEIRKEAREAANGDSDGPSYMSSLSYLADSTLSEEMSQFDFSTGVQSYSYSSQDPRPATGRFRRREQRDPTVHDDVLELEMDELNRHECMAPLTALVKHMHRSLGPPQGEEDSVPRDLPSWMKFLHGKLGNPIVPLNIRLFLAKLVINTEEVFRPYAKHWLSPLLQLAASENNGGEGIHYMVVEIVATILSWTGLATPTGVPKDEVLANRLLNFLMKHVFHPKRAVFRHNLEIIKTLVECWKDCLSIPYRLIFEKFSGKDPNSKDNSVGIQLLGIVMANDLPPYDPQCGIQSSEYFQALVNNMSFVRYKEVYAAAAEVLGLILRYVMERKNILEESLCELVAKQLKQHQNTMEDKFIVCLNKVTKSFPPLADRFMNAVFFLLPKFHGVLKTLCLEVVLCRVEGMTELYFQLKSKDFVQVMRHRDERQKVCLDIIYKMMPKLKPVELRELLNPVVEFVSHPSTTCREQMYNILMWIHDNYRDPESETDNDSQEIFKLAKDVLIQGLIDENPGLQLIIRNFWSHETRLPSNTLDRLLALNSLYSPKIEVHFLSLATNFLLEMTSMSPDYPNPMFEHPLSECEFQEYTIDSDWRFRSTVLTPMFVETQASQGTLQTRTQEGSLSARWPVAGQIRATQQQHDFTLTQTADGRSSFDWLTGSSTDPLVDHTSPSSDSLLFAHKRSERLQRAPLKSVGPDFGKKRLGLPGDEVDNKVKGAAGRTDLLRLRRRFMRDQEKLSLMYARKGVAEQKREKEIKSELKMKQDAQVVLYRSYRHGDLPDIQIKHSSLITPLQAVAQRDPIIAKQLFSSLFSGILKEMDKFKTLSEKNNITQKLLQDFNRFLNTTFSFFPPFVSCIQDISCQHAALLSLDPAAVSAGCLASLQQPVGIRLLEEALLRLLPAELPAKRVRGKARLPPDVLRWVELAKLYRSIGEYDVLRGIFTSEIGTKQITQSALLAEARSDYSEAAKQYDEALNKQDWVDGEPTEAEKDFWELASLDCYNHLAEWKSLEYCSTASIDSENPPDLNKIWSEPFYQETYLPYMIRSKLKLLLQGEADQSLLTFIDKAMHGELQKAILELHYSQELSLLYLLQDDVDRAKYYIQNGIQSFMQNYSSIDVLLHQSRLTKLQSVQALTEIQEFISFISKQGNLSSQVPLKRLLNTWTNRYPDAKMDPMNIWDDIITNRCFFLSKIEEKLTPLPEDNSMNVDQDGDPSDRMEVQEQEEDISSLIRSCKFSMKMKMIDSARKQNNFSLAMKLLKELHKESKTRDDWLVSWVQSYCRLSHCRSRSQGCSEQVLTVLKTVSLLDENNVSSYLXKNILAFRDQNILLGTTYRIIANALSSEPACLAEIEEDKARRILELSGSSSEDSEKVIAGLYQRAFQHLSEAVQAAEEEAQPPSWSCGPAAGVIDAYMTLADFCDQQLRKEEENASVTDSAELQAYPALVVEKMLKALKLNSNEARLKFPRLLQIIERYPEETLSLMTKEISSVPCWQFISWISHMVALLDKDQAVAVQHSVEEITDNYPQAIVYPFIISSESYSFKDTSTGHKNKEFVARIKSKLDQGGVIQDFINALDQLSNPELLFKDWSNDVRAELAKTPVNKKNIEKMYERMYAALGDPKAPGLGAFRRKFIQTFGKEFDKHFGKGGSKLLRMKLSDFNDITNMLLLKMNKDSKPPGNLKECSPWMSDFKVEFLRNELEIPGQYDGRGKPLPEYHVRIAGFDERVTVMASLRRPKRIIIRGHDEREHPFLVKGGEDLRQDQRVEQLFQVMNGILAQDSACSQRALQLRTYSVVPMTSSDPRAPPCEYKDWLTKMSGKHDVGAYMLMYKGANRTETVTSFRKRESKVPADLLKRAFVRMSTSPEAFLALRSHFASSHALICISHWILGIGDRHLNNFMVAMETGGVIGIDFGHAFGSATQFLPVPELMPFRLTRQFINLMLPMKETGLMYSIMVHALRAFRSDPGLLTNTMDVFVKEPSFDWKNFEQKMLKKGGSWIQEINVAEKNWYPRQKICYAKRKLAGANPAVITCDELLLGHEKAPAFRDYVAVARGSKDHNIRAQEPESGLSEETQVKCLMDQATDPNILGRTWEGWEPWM
UniProt P08047, 2-785: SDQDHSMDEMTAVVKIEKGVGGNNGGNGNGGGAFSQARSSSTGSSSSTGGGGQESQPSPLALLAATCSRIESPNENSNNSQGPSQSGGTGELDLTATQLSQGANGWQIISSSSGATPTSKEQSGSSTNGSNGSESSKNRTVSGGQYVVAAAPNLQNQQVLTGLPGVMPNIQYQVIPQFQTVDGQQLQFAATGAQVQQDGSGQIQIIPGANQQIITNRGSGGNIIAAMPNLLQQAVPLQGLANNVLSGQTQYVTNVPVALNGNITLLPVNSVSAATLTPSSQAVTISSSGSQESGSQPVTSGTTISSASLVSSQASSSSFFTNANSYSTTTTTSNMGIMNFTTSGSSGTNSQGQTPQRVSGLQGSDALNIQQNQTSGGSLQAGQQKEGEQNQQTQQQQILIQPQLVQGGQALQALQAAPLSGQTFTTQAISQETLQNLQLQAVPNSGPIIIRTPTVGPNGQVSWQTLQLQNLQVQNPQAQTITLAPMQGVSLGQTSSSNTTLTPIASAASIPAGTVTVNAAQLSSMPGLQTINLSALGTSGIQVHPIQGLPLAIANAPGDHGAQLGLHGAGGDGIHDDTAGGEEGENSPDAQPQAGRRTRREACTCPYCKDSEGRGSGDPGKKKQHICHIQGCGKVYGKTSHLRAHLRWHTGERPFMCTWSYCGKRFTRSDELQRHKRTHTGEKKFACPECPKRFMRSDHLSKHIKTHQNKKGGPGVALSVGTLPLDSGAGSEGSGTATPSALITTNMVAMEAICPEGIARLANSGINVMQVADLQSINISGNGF

Holding throughout (assay): pull-down
One data set concerns the target ATM (Homo sapiens) (UniProt Q13315). The note with it: protein in an extract.
Data set [1] concerns the target DNA-PKcs (with Ku present in extract) (Homo sapiens) (UniProt P78527). The note with it: binds only very inefficiently; data not shown; protein in an extract; protein details: native, HeLa nuclear extract; label: 5' biotin on SEQ:16.
In data set [2] the test system is RNA polymerase II (Homo sapiens). Particulars: no stable interaction with random 50-mer; protein in an extract; protein details: native complex, HeLa nuclear extract; label: 5' biotin on SEQ:16.
A further data set deals with Sp1 (Homo sapiens) (UniProt P08047). The note with it: no stable interaction with random 50-mer; protein in an extract; protein details: native, HeLa nuclear extract; label: 5' biotin on SEQ:16.
[3] abbreviates: equal efficiency to fully ds DNA, label: 5' biotin on SEQ:21, folded or branched DNA.

For at least one entry, the source does not settle the construct or the ends of the probe. Where cells or extracts were used, other partners may take part. For part of these data: A negative result means that nothing was seen under these conditions. For part of these data: The comparison behind a weaker result is the experiment's own reference, which may not be listed here.

With “CCTGCCCTTGCCTGA (double strand) [ds 15-mer]”, the binding result in the data set with ATM (Homo sapiens) (some ATM unbound, most bound elutes in lower salt wash, label: 5' biotin on SEQ:12) is given as “binds more weakly”.
As for “CCTGCCCTTGCCTGACGCTATTAGT (double strand) [ds 25-mer]”, the binding result in the data set with ATM (Homo sapiens) (binding increases progressively with duplex length, label: 5' biotin on SEQ:14) is given as “binds”.
Consider “CCTGCCCTTGCCTGACGCTATTAGTTCATCTATTTGTTTTGCTAATTCGATTGGAATCGAAACGGTCACATATTCTTTTTTGACTGATTTCCTCGGCATA / TATGCCGAGGAAATCAGTCAAAAAAGAATATGTGACCGTTTCGAATTAGCAAAACAAATAGATGAACTAATAGCGTCAGGCAAGGGCAGG [10 bp insertion DYNO+DAM6]”, for which the binding result in the data set with ATM (Homo sapiens) (setting [3]) is “binds”.
The same measure, in the same setting: in the case of “CCTGCCCTTGCCTGACGCTATTAGTTCATCTATTTGTTTTGCTAATTCGATTGGAATCGAAACGGTCACATATTCTTTTTTGACTGATTTCCTCGGCATA / TATGCCGAGGAAATCAGTCAAAAAAGAATATGTGACCGTTTCGATTCCAA / TCGAATTAGCAAAACAAATAGATGAACTAATAGCGTCAGGCAAGGGCAGG [nicked oligo DYNO+DAM2+DAM3]” it was “binds”; in that of “CCTGCCCTTGCCTGACGCTATTAGTTCATCTATTTGTTTTGCTAATTCGATTGGAATCGAAACGGTCACATATTCTTTTTTGACTGATTTCCTCGGCATA / TCGAATTAGCAAAACAAATAGATGAACTAATAGCGTCAGGCAAGGGCAGG / TATGCCGAGGAAATC [gapped ds oligo DYNO+DAM3+DAM5]”, “binds”; in that of “CCTGCCCTTGCCTGACGCTATTAGTTCATCTATTTGTTTTGCTAATTCGATTGGAATCGAAACGGTCACATATTCTTTTTTGACTGATTTCCTCGGCATA / TCGAATTAGCAAAACAAATAGATGAACTAATAGCGTCAGGCAAGGGCAGG [ds/ss transition DYNO+DAM3]”, “binds”.
With “GATCGAATCCGATAGAGTATAGATAGAGTAAAGTTTAAATACTTATATAGATAGAGTATAGATAGAGGGTTCAAA (double strand) [ds 75-mer]”, in the data set with ATM (Homo sapiens) (almost quantitative, elutes in higher salt wash, label: 5' biotin on SEQ:18), the binding result is reported as “binds”.
As for “TTGTAAAACGACGGCCAGTGAATTCATCATCAATAATATACCTTATTTTG (double strand) [ds 50-mer]”, the binding result with ATM (Homo sapiens) (over 90% of ATM bound, binding almost quantitative, bound in 50 mM KCl, elutes at 500 mM KCl, label: 5' biotin on SEQ:16) was “binds”; in data set [1], “binds more weakly”; in data set [2] it was “no binding”; in the data set with Sp1 (Homo sapiens) it was “no binding”.
Turning to “TTGTAAAACGACGGCCAGTGAATTCATCATCAATAATATACCTTATTTTG [ss 50-mer]”, the binding result with ATM (Homo sapiens) (binds effectively to ssDNA, 50 mM KCl, label: 5' biotin, single-stranded DNA) was “binds”.
